Test results reported in article PMC7916480, “Functional and Structural Characterization of Nucleic Acid Ligands That Bind to Activated Coagulation Factor XIII”.
For some of these results: A negative result means that nothing was seen under these conditions. Where a protein sequence is shown, tags need not be part of it. For some of these results: For at least one entry, the source does not settle the construct or the ends of the probe. For some of these results: The direction of at least one scale is not stated here.

Key:
[1] = biological target: T1, FXIIIa (activated coagulation factor XIII) (human) (UniProt P00488); assay: pull-down (aptamer-coated plate, activity read-out); details: 30 nM FXIIIa, recombinant protein, single-stranded DNA; for binding signal: label: 3'-biotin (BLI, capture, fibrinogen assay)
T1 sequence (looked up, limits assumed): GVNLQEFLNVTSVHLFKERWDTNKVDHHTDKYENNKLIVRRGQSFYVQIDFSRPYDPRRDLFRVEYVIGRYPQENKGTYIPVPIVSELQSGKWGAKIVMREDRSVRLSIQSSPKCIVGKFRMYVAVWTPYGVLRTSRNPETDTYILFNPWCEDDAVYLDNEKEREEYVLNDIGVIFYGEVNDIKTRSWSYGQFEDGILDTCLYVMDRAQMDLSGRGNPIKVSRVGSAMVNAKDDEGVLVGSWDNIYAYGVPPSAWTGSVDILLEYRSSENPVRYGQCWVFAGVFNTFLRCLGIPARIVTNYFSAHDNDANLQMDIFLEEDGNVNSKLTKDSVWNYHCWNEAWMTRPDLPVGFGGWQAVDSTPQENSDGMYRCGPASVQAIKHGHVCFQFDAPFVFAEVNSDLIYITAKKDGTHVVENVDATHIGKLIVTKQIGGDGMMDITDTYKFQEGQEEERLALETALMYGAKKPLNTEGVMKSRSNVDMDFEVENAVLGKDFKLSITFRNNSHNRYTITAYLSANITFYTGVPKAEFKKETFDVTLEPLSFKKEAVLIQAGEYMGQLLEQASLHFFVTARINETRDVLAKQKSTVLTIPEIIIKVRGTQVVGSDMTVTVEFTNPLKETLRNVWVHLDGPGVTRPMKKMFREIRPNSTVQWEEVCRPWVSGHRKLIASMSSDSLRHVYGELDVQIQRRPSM

[2] = biological target: T2, FXIII-A (A subunit, zymogen) (UniProt P00488); assay: BLI; details: BLI (BLItz, SAX sensors, 3'-biotinylated aptamer 1 µM) in binding buffer, 2200 rpm; buffer composition; plate capture 30 min; commercial protein; label: 3'-biotin (BLI, capture, fibrinogen assay); single-stranded DNA
T2 sequence (looked up, limits assumed): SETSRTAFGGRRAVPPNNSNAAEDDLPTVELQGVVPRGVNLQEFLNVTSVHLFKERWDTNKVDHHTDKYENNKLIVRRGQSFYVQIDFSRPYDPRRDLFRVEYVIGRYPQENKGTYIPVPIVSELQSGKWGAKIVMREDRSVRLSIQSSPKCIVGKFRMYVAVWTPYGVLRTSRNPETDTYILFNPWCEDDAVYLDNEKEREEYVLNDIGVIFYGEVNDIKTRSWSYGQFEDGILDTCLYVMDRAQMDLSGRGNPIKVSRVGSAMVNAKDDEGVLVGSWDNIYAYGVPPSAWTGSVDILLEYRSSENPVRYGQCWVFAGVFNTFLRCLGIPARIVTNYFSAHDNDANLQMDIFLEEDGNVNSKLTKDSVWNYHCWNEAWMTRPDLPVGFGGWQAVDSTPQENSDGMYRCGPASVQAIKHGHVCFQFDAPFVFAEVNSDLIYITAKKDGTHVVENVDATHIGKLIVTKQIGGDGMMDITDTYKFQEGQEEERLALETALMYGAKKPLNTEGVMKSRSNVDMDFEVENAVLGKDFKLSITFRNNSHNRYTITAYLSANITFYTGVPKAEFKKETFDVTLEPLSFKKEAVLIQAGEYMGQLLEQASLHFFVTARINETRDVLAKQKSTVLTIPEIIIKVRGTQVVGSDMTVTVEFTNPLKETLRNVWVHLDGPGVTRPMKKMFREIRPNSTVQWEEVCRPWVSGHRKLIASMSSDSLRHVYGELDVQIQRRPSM

Row | Sequence | binding signal [1] [% captured] | Kd [2] [nM] | binding result ([1]; label: biotin (capture))
1 | AAGCAGTGGTAAGTAGGTTGACCATCCGCCGATTAGGCAATCACGTGGCTTAGGCACCGTATCTCTTCGAGCAATCCACAC [FA1] | 1.6 | > 1000 | 
2 | AAGCAGTGGTAAGTAGGTTGACCATCGTAGTTCGTACACCAGTCCATTCTAGGACTCACAATCTCTTCGAGCAATCCACAC [FA3] |  | > 1000 | 
3 | AAGCAGTGGTAAGTAGGTTGACGCTGCGGGCATCACGTAAGTTAATATATCACTCGGCTATTCTCTTCGAGCAATCCACAC [FA6] |  | > 1000 | 
4 | AAGCAGTGGTAAGTAGGTTGAGCTTTCATCACCCGTCGGTTAGACTAAGTCTCCAGCATCCTCTCTTCGAGCAATCCACAC [FA2] | 1.6 | > 1000 | 
5 | AAGCAGTGGTAAGTAGGTTGATCATCATGTTATTTTTGTTCCATCACGCCAGTTCTGGTTCTCTCTTCGAGCAATCCACAC [FA8] | 1.6 | > 1000 | 
6 | AAGCAGTGGTAAGTAGGTTGATCATCCTCTTTAAGTCATCACTTTAGTTTCTCCATCTACATCTCTTCGAGCAATCCACAC [FA12] |  | > 1000 | 
7 | TACTGTCACGAGGATATAGCACATTAGTTCAGATACGATTGTTACTGTCA [negative control oligonucleotide] |  |  | no binding
